From patent publication EP0036153A1, “1,1-Diphenyl-2-(1,2,4-triazol-1-yl)-ethan-1-oles as antimycotic agents” (BASF Aktiengesellschaft, priority 1980, dated 1981)
Where a name gives a salt, the structure may show the parent alone. At least one read-out could not be matched to a standard name with certainty.

Tested on: Candida albicans
Assay: Experimental candidosis of the mouse by Candida albicans (survival after oral treatment)
Type: in vivo, Maus
Conditions: groups of 10 mice
[1] = 2 x tgl. 100 mg/kg oral for 4 days

Row | Structure (SMILES) | Anzahl der überlebenden Tiere am 1. Tag post infectionem [1] | Anzahl der überlebenden Tiere am 2. Tag post infectionem [1] | Anzahl der überlebenden Tiere am 3. Tag post infectionem [1] | Anzahl der überlebenden Tiere am 4. Tag post infectionem [1] | Anzahl der überlebenden Tiere am 5. Tag post infectionem [1] | Anzahl der überlebenden Tiere am 6. Tag post infectionem [1] | Anzahl der überlebenden Tiere am 7. Tag post infectionem [1] | Anzahl der überlebenden Tiere am 8. Tag post infectionem [1] | Anzahl der überlebenden Tiere am 9. Tag post infectionem [1] | Anzahl der überlebenden Tiere am 10. Tag post infectionem [1] | Anzahl der überlebenden Tiere am 1. Tag post infectionem (2 x tgl. 21,5 mg/kg for 4 days) | Anzahl der überlebenden Tiere am 2. Tag post infectionem (2 x tgl. 21,5 mg/kg for 4 days) | Anzahl der überlebenden Tiere am 3. Tag post infectionem (2 x tgl. 21,5 mg/kg for 4 days) | Anzahl der überlebenden Tiere am 4. Tag post infectionem (2 x tgl. 21,5 mg/kg for 4 days) | Anzahl der überlebenden Tiere am 5. Tag post infectionem (2 x tgl. 21,5 mg/kg for 4 days) | Anzahl der überlebenden Tiere am 6. Tag post infectionem (2 x tgl. 21,5 mg/kg for 4 days) | Anzahl der überlebenden Tiere am 7. Tag post infectionem (2 x tgl. 21,5 mg/kg for 4 days) | Anzahl der überlebenden Tiere am 8. Tag post infectionem (2 x tgl. 21,5 mg/kg for 4 days) | Anzahl der überlebenden Tiere am 9. Tag post infectionem (2 x tgl. 21,5 mg/kg for 4 days) | Anzahl der überlebenden Tiere am 10. Tag post infectionem (2 x tgl. 21,5 mg/kg for 4 days) | further results
1 | OC(Cn1cncn1)(c1ccc(Cl)cc1)c1ccc(Cl)cc1 [Beispiel 1, 1,1-Bis-(4-chlorphenyl)-2-(1.2.4-triazol-1-yl)--äthan-1-ol] | 10 | 10 | 10 | 10 | 10 | 10 | 10 | 10 | 10 | 9 | – | – | – | – | – | – | – | – | – | – | –
2 | OC(Cn1cncn1)(c1ccc(Cl)cc1)c1ccc(Cl)cc1 [Beispiel 2, 1,1-Bis-(4-chlorphenyl)-2-(1.2.4-triazol-1-yl)--äthan-1-ol-hydrochlorid] | 10 | 10 | 10 | 10 | 10 | 10 | 9 | 9 | 9 | 9 | 10 | 10 | 10 | 10 | 10 | 9 | 9 | 8 | 8 | 8 | Anzahl der überlebenden Tiere am 1. Tag post infectionem (2 x tgl. 46,4 mg/kg for 4 days): 10; Anzahl der überlebenden Tiere am 2. Tag post infectionem (2 x tgl. 46,4 mg/kg for 4 days): 10; Anzahl der überlebenden Tiere am 3. Tag post infectionem (2 x tgl. 46,4 mg/kg for 4 days): 10; Anzahl der überlebenden Tiere am 4. Tag post infectionem (2 x tgl. 46,4 mg/kg for 4 days): 10; Anzahl der überlebenden Tiere am 5. Tag post infectionem (2 x tgl. 46,4 mg/kg for 4 days): 10; Anzahl der überlebenden Tiere am 6. Tag post infectionem (2 x tgl. 46,4 mg/kg for 4 days): 10; Anzahl der überlebenden Tiere am 7. Tag post infectionem (2 x tgl. 46,4 mg/kg for 4 days): 10; Anzahl der überlebenden Tiere am 8. Tag post infectionem (2 x tgl. 46,4 mg/kg for 4 days): 10; Anzahl der überlebenden Tiere am 9. Tag post infectionem (2 x tgl. 46,4 mg/kg for 4 days): 9; Anzahl der überlebenden Tiere am 10. Tag post infectionem (2 x tgl. 46,4 mg/kg for 4 days): 9
3 | OC(Cn1cncn1)(c1ccc(Cl)cc1)c1ccc(Cl)cc1Cl (stereo not shown) [Beispiel 3, 1-(4-Chlorphenyl)-1-(2,4-dichlorphenyl)-2-(1,2,4-triazol-1-yl)-äthan-1-ol] | 10 | 10 | 10 | 10 | 10 | 10 | 10 | 10 | 10 | 10 | 10 | 10 | 10 | 10 | 10 | 10 | 10 | 10 | 10 | 10 | Anzahl der überlebenden Tiere am 1. Tag post infectionem (2 x tgl. 46,4 mg/kg for 4 days): 10; Anzahl der überlebenden Tiere am 2. Tag post infectionem (2 x tgl. 46,4 mg/kg for 4 days): 10; Anzahl der überlebenden Tiere am 3. Tag post infectionem (2 x tgl. 46,4 mg/kg for 4 days): 10; Anzahl der überlebenden Tiere am 4. Tag post infectionem (2 x tgl. 46,4 mg/kg for 4 days): 10; Anzahl der überlebenden Tiere am 5. Tag post infectionem (2 x tgl. 46,4 mg/kg for 4 days): 10; Anzahl der überlebenden Tiere am 6. Tag post infectionem (2 x tgl. 46,4 mg/kg for 4 days): 10; Anzahl der überlebenden Tiere am 7. Tag post infectionem (2 x tgl. 46,4 mg/kg for 4 days): 10; Anzahl der überlebenden Tiere am 8. Tag post infectionem (2 x tgl. 46,4 mg/kg for 4 days): 10; Anzahl der überlebenden Tiere am 9. Tag post infectionem (2 x tgl. 46,4 mg/kg for 4 days): 10; Anzahl der überlebenden Tiere am 10. Tag post infectionem (2 x tgl. 46,4 mg/kg for 4 days): 10
4 | OC(Cn1cncn1)(c1ccc(Cl)cc1)c1ccc(Cl)cc1Cl (stereo not shown) [Beispiel 4, 1-(4-Chlorphenyl)-1-(2,4-dichlorphenyl)-2-(1.2.4--triazol-1-yl)-äthan-1-ol-hydrochlorid] | 10 | 10 | 10 | 10 | 10 | 10 | 10 | 10 | 10 | 10 | 10 | 10 | 10 | 10 | 10 | 10 | 10 | 10 | 10 | 10 | Anzahl der überlebenden Tiere am 1. Tag post infectionem (2 x tgl. 46,4 mg/kg for 4 days): 10; Anzahl der überlebenden Tiere am 2. Tag post infectionem (2 x tgl. 46,4 mg/kg for 4 days): 10; Anzahl der überlebenden Tiere am 3. Tag post infectionem (2 x tgl. 46,4 mg/kg for 4 days): 10; Anzahl der überlebenden Tiere am 4. Tag post infectionem (2 x tgl. 46,4 mg/kg for 4 days): 10; Anzahl der überlebenden Tiere am 5. Tag post infectionem (2 x tgl. 46,4 mg/kg for 4 days): 10; Anzahl der überlebenden Tiere am 6. Tag post infectionem (2 x tgl. 46,4 mg/kg for 4 days): 10; Anzahl der überlebenden Tiere am 7. Tag post infectionem (2 x tgl. 46,4 mg/kg for 4 days): 10; Anzahl der überlebenden Tiere am 8. Tag post infectionem (2 x tgl. 46,4 mg/kg for 4 days): 10; Anzahl der überlebenden Tiere am 9. Tag post infectionem (2 x tgl. 46,4 mg/kg for 4 days): 9; Anzahl der überlebenden Tiere am 10. Tag post infectionem (2 x tgl. 46,4 mg/kg for 4 days): 9
5 | OC(Cn1cncn1)(c1ccc(Cl)cc1)c1ccc(Cl)cc1Cl (stereo not shown) [Beispiel 5, 1-(4-Chlorphenyl)-1-(2,4-dichlorphenyl)-2-(1.2.4--triazol-1-yl)-äthan-1-ol-nitrat] | 10 | 10 | 10 | 10 | 10 | 10 | 10 | 10 | 10 | 10 | 10 | 10 | 10 | 10 | 10 | 10 | 10 | 10 | 10 | 10 | Anzahl der überlebenden Tiere am 1. Tag post infectionem (2 x tgl. 46,4 mg/kg for 4 days): 10; Anzahl der überlebenden Tiere am 2. Tag post infectionem (2 x tgl. 46,4 mg/kg for 4 days): 10; Anzahl der überlebenden Tiere am 3. Tag post infectionem (2 x tgl. 46,4 mg/kg for 4 days): 10; Anzahl der überlebenden Tiere am 4. Tag post infectionem (2 x tgl. 46,4 mg/kg for 4 days): 10; Anzahl der überlebenden Tiere am 5. Tag post infectionem (2 x tgl. 46,4 mg/kg for 4 days): 10; Anzahl der überlebenden Tiere am 6. Tag post infectionem (2 x tgl. 46,4 mg/kg for 4 days): 10; Anzahl der überlebenden Tiere am 7. Tag post infectionem (2 x tgl. 46,4 mg/kg for 4 days): 10; Anzahl der überlebenden Tiere am 8. Tag post infectionem (2 x tgl. 46,4 mg/kg for 4 days): 9; Anzahl der überlebenden Tiere am 9. Tag post infectionem (2 x tgl. 46,4 mg/kg for 4 days): 9; Anzahl der überlebenden Tiere am 10. Tag post infectionem (2 x tgl. 46,4 mg/kg for 4 days): 9
